# Laboratory results as given in the supplement of paper PMC8166895.
# Where a name gives a salt, the structure may show the parent alone. Some of the results follow. Most entries show no effect beyond the scatter of the controls.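 A single-replicate pilot screen of approved drugs and clinical or known-target compounds measured melting temperature via differential scanning fluorimetry. Top stabilizing hits raised the melting point by 2 °C or more; negative shifts indicate destabilization.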
# Test system: SARS-CoV-2 main protease (Mpro, nsp5)
# Experiment: thermal shift ΔTm of Mpro relative to plate average Tm; higher = stronger thermal stabilization of Mpro (binding)
# Conditions: 10 µM; protein concentration 1 µM
row,Structure (SMILES),thermal shift ΔTm of Mpro
1,COc1cc2c(cc1NS(=O)(=O)c1ccc(Br)cc1C)n(C)c(=O)n2C,-0.313 °C
2,CC(C)(O/N=C(\C(=O)N[C@@H]1C(=O)N2C(C(=O)[O-])=C(C[n+]3ccccc3)CS[C@H]12)c1csc(N)n1)C(=O)O [Ceftazidime],-0.114 °C
3,Cc1c(Cl)cccc1Nc1ncccc1C(=O)O [Clonixin],0.0343 °C
4,CCC[C@H](NC(=O)/C(C#N)=C/c1cccc(Br)n1)c1ccccc1 [Degrasyn (WP1130)],-0.545 °C
5,CCOC(=O)NCCCC(=O)NCCc1ccccc1,-0.116 °C
6,COc1ccc(Cl)cc1N(CC(=O)Nc1ccc2c(c1)OCO2)S(=O)(=O)c1ccccc1,-0.075 °C
7,Cc1cc(NC(=O)c2cccc(NC(=O)/C=C/CN(C)C)c2)ccc1Nc1nccc(-c2cccnc2)n1,-0.106 °C
8,CCOc1cc2ncc(C#N)c(Nc3ccc(OCc4ccccn4)c(Cl)c3)c2cc1NC(=O)/C=C/CN(C)C [Neratinib],0.0546 °C
9,Cc1cccc(Nc2cc(Cl)nc(SCC(=O)O)n2)c1C,-0.141 °C
10,O=C(N/N=C/c1ccc([N+](=O)[O-])o1)c1ccc(O)cc1 [Nifuroxazide],0.0358 °C
11,Cc1cn([C@@H]2C[C@@H](O)[C@H](CO)O2)c(=O)[nH]c1=O [Telbivudine],0.0766 °C
12,CC(=O)Nc1ccc(S(=O)(=O)Nc2ccc([N+](=O)[O-])cc2)cc1 [Sulfanitran],-0.00821 °C
13,CCc1cc(C(N)=S)ccn1 [Ethionamide],0.057 °C
14,OCC(Br)(Br)Br [Basibrol],0.254 °C
15,CC(=O)Nc1c(I)c(NC(C)=O)c(I)c(C(=O)O)c1I [Diatrizoate sodium],-0.0894 °C
16,O=C(NC(NC(=S)Nc1ccc(F)c([N+](=O)[O-])c1)C(Cl)(Cl)Cl)C(c1ccccc1)c1ccccc1 (stereo not given),0.815 °C
17,OCc1ccc(O[C@@H]2O[C@H](CO)[C@@H](O)[C@H](O)[C@H]2O)cc1 [Gastrodin],-0.0133 °C
18,Cn1cc(C2=C(c3ccc(Cl)cc3Cl)C(=O)NC2=O)c2ccccc21,0.17 °C
19,CCNC(=O)c1noc(-c2cc(Cl)c(O)cc2O)c1-c1ccc(OC)cc1,0.0849 °C
20,CS(=O)(=O)Nc1cc(-c2ccc3ncnc(Nc4ccc(F)c(Cl)c4)c3c2)cnc1Cl,0.063 °C
21,CCn1cc(C(=O)O)c(=O)c2cc(F)c(N3CCN(C)CC3)cc21 [Pefloxacin Mesylate],0.0217 °C
22,CCn1cc(C(=O)O)c(=O)c2cc(F)c(N3CCN(C)CC3)cc21 [Pefloxacin Mesylate Dihydrate],0.0653 °C
23,N#CN=C(NCCCCCCOc1ccc(Cl)cc1)Nc1ccncc1,-0.0785 °C
24,NC(=O)c1[nH]cnc1N [4-Amino-5-imidazolecarboxamide],0.0695 °C
25,CC[C@]12CCCN3CCc4c(n(c5ccccc45)C(=O)C1)[C@@H]32 [Eburnalritardo],-0.0325 °C

row,Structure (SMILES),thermal shift ΔTm of Mpro
1,CCOC(=O)c1ccc(N2NC(=O)C(=Cc3ccc([N+](=O)[O-])o3)C2=O)cc1,0.588 °C
2,C#C[C@]1(O)C=C[C@H]2[C@@H]3CCC4=CC(=O)CC[C@@H]4[C@H]3CC[C@@]21CC [Gestodene],0.519 °C
3,Cc1ccc(S(=O)(=O)NCl)cc1 [Chloramine-T],1.9 °C
4,O=[N+]([O-])c1cc(Cl)ccc1S(=O)(=O)c1ccccc1,-0.118 °C
5,C[C@@H]1CN(c2c(F)c(N)c3c(=O)c(C(=O)O)cn(C4CC4)c3c2F)C[C@H](C)N1 [Sparfloxacin],0.0987 °C
6,C[C@@H]1O[C@@H]1P(=O)(O)O [Fosfomycin calcium],0.083 °C
7,COc1cc2nccc(Oc3ccc(NC(=O)Nc4ccc(F)cc4F)c(F)c3)c2cc1OC,0.524 °C
8,CC1(C)[C@@H](O[C@H]2O[C@H](C(=O)O)[C@@H](O)[C@H](O)[C@H]2O[C@@H]2O[C@H](C(=O)O)[C@@H](O)[C@H](O)[C@H]2O)CC[C@]2(C)[C@H]3C(=O)C=C4[C@@H]5C[C@@](C)(C(=O)O)CC[C@]5(C)CC[C@@]4(C)[C@]3(C)CC[C@@H]12 [Glycyrrhizin (Glycyrrhizic Acid)],-0.239 °C
9,CC1(C)[C@@H](O[C@H]2O[C@H](C(=O)O)[C@@H](O)[C@H](O)[C@H]2O[C@@H]2O[C@H](C(=O)O)[C@@H](O)[C@H](O)[C@H]2O)CC[C@]2(C)[C@H]3C(=O)C=C4[C@@H]5C[C@@](C)(C(=O)O)CC[C@]5(C)CC[C@@]4(C)[C@]3(C)CC[C@@H]12 [Ammonium Glycyrrhizinate],-0.102 °C
10,NCC(=O)O.[C-]#[O+].[C-]#[O+].[C-]#[O+].[Cl][Ru],-0.684 °C
11,Cc1cc(C(=O)CN2CCCC2)c(C)n1-c1ccc(F)cc1,-0.0782 °C
12,COc1cc(NC(=O)c2ccc(-c3ccc(Cl)cc3)o2)cc(OC)c1,0.131 °C
13,CCOC(=O)CCC(=O)O[C@H]1[C@H](O[C@@H]2[C@@H](C)[C@H](O[C@H]3C[C@@](C)(OC)[C@@H](O)[C@H](C)O3)[C@@H](C)C(=O)O[C@H](CC)[C@@](C)(O)[C@H](O)[C@@H](C)C(=O)[C@H](C)C[C@@]2(C)O)O[C@H](C)C[C@@H]1N(C)C [Erythromycin Ethylsuccinate],0.0253 °C
14,N#Cc1ccc(Cn2cncc2CN2CCN(c3cccc(Cl)c3)C(=O)C2)cc1,0.0422 °C
15,c1ccc2c(Oc3nc(Nc4ccc(N5CCOCC5)cc4)c4ncn(C5CCCCC5)c4n3)cccc2c1 [Purmorphamine],-0.0605 °C
16,C[C@]12C=CC(=O)C=C1CC[C@@H]1[C@@H]2C(=O)C[C@@]2(C)[C@H]1CC[C@]2(O)C(=O)CO [Prednisone],0.0569 °C
17,C=CC(=O)Nc1cccc(Nc2nc(Nc3ccc(NC4CN(CCF)C4)cc3OC)ncc2C(F)(F)F)c1,0.228 °C
18,Cc1cc(Nc2cc(Cl)nc(Oc3ccc([N+](=O)[O-])cc3)n2)n[nH]1 [Autophinib],-0.0913 °C
19,CS(=O)(=O)Nc1ccc([N+](=O)[O-])cc1Oc1ccccc1 [Nimesulide],0.0228 °C
20,CCn1cc(C(=O)O)c(=O)c2cc(F)c(N3CCNC(C)C3)c(F)c21 (stereo not given) [Lomefloxacin],-0.135 °C
21,Clc1ccccc1-c1nnc(-c2ccccc2Cl)nn1 [Clofentezine],-0.039 °C
22,O=c1c(O)c(-c2ccc(O)cc2)oc2c(O)c(O)cc(O)c12 [Herbacetin],-0.063 °C
23,CNC(=C[N+](=O)[O-])NCCSCc1csc(CN(C)C)n1 [Nizatidine],0.0104 °C
24,NC(=O)c1nc(-c2c(F)cccc2Cl)oc1Nc1ccc(C(=O)N2CCOCC2)cc1,-0.0151 °C
25,CC(C)CN(C[C@@H](O)[C@H](Cc1ccccc1)NC(=O)O[C@H]1CCOC1)S(=O)(=O)c1ccc(N)cc1 [Amprenavir],0.0243 °C

# Shown bar-delimited: entries from further up
row | Structure (SMILES) | thermal shift ΔTm of Mpro
3 | Cc1ccc(S(=O)(=O)NCl)cc1 [Chloramine-T] | 1.9 °C
7 | COc1cc2nccc(Oc3ccc(NC(=O)Nc4ccc(F)cc4F)c(F)c3)c2cc1OC | 0.524 °C
9 | CC1(C)[C@@H](O[C@H]2O[C@H](C(=O)O)[C@@H](O)[C@H](O)[C@H]2O[C@@H]2O[C@H](C(=O)O)[C@@H](O)[C@H](O)[C@H]2O)CC[C@]2(C)[C@H]3C(=O)C=C4[C@@H]5C[C@@](C)(C(=O)O)CC[C@]5(C)CC[C@@]4(C)[C@]3(C)CC[C@@H]12 [Ammonium Glycyrrhizinate] | -0.102 °C
13 | CCOC(=O)CCC(=O)O[C@H]1[C@H](O[C@@H]2[C@@H](C)[C@H](O[C@H]3C[C@@](C)(OC)[C@@H](O)[C@H](C)O3)[C@@H](C)C(=O)O[C@H](CC)[C@@](C)(O)[C@H](O)[C@@H](C)C(=O)[C@H](C)C[C@@]2(C)O)O[C@H](C)C[C@@H]1N(C)C [Erythromycin Ethylsuccinate] | 0.0253 °C

# Next part.

row,Structure (SMILES),thermal shift ΔTm of Mpro
1,CC(C)[C@H](NC(=O)CCCCCN1C(=O)C=CC1=O)C(=O)N[C@@H](C)C(=O)Nc1ccc(CO)cc1,-0.951 °C
2,CCC1=C[C@@H]2CN(C1)Cc1c([nH]c3ccccc13)[C@@](C(=O)OC)(c1cc3c(cc1OC)N(C)[C@H]1[C@@](O)(C(=O)OC)[C@H](OC(C)=O)[C@]4(CC)C=CCN5CC[C@]31[C@@H]54)C2 [Vinorelbine Tartrate],-0.0755 °C
3,O=C(NC1CCOCC1)c1ccc(-c2cc(-c3c[nH]nc3-c3ccccn3)ccn2)cc1,-0.0687 °C
4,O=C1C(=O)N(Cc2ccc(Cl)c(Cl)c2)c2ccccc21 [Apoptosis Activator 2],0.0536 °C
5,NS(=O)(=O)c1cc2c(cc1Cl)NCNS2(=O)=O [Hydrochlorothiazide],-0.235 °C
6,COc1cc(/C=C/C(=O)O)ccc1O [Ferulic Acid],0.0506 °C
7,C[N+]1(C)CCC(=C(c2ccccc2)c2ccccc2)CC1 [Diphemanil Methylsulfate],-0.0446 °C
8,CN(C)CCC=C1c2ccccc2C=Cc2ccccc21 [Cyclobenzaprine HCl],0.0659 °C
9,O=C1c2cccc(O)c2C(=O)c2c(O)cc(CO)cc21 [Aloe-emodin],0.00146 °C
10,CN(C)CCc1c[nH]c2ccc(C[C@H]3COC(=O)N3)cc12 [Zolmitriptan],0.0927 °C
11,O=c1[nH]c(=O)n([C@H]2C[C@H](O)[C@@H](CO)O2)cc1F [Floxuridine],0.199 °C
12,O=C(Nc1ccc2[nH]ccc2c1)c1ccccc1,0.028 °C
13,CNNCc1ccc(C(=O)NC(C)C)cc1 [Procarbazine hydrochloride],0.0193 °C
14,OB1OCc2cc(Cl)ccc21,-0.0217 °C
15,COc1cc(C)c(/C=C/C(C)=C/C=C/C(C)=C/C(=O)O)c(C)c1C [Acitretin],0.638 °C
16,CC(C)(F)C[C@H](N[C@@H](c1ccc(-c2ccc(S(C)(=O)=O)cc2)cc1)C(F)(F)F)C(=O)NC1(C#N)CC1 [Odanacatib (MK-0822)],-0.161 °C
17,CC(C)OC(=O)CCC/C=C\C[C@@H]1[C@@H](CC[C@@H](O)CCc2ccccc2)[C@H](O)C[C@@H]1O [Latanoprost],-0.206 °C
18,C[C@@]12N[C@@H](Cc3ccccc31)c1ccccc12 [(-)-MK 801 Maleate],0.128 °C
19,CN(C)c1ccc(C=C2C(=O)Nc3ccccc32)cc1,-0.0682 °C
20,CC(c1cc2ccccc2s1)N(O)C(N)=O (stereo not given) [Zileuton],0.129 °C
21,O=C(O)C(Cc1ccccc1[N+](=O)[O-])=NNc1nc(-c2ccc(Cl)c(Cl)c2)cs1 (mixture of isomers),0.0564 °C
22,C[C@@H]1C(=O)O[C@H]2C[C@@]34[C@H]5C[C@@H](C(C)(C)C)[C@]36[C@@H](OC(=O)[C@@H]6O)O[C@@]4(C(=O)O5)[C@]21O [Ginkgolide A],0.0697 °C
23,CC1=C(C(=O)OC2CCCCC2)C(c2ccc([N+](=O)[O-])cc2)C2=C(CC(C)(C)CC2=O)N1 (stereo not given),0.282 °C
24,OC[C@@H](O)[C@H]1O[C@@H]2O[C@H](C(Cl)(Cl)Cl)O[C@@H]2[C@H]1O [Alpha-Chloralose],0.267 °C
25,NC(=O)c1ncn([C@@H]2O[C@H](CO)[C@@H](O)[C@H]2O)c1N [Acadesine],0.0663 °C
